In the supplement of paper PMC11006884:
Only a part is listed here, and it is no random draw.

Each target was assayed with COC(=O)C#Cc1ccccc1 [methyl 3-phenylpropiolate] (assay: log2 ratio of iodoacetamide-alkyne labeling of the cysteine site, DMSO over compound (competition); higher = stronger covalent engagement of the cysteine by the compound, active = 1 or more). Conditions: 500 µM; treatment time 1 h; system: HEK293T cell lysate.
Outline: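 For each cysteine, the log2 competition ratio is mean control-channel reporter intensity over mean compound-channel reporter intensity. HEK293T lysate (2 mg/mL) was exposed to vehicle or electrophile (500 µM, 1 h, ambient temperature), labelled with iodoacetamide alkyne (1 h), clicked to sCIP-TMT reagents, digested overnight with trypsin at 37 °C, streptavidin-enriched and analysed by Orbitrap Eclipse LC-MS/MS with FAIMS and FragPipe. Cysteines quantified in only one of three replicates, each with duplicate channels, were excluded.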

log2 ratio of iodoacetamide-alkyne labeling, inactive:
NCAPG C177 (UniProt Q9BPX3) 0.306
NUP88 C561 (UniProt Q99567) 0.386
SMG1 C2304 (UniProt Q96Q15) -0.0684
SMG1 C3401 (UniProt Q96Q15) -0.371
FUBP3 C310 (UniProt Q96I24) 0.26
VRK1 C220 (UniProt Q99986) 0.151
RNF2 C75 (UniProt Q99496) -0.358
SNX27 C247 (UniProt Q96L92) 0.286
UniProt Q9BQ61_C165 0.332
UIMC1 C601 (UniProt Q96RL1) 0.676
HSD17B10 C58 (UniProt Q99714) 0.349
PARK7 C46 (UniProt Q99497) 0.0846
SPEN C877 (UniProt Q96T58) 0.728
SEC22A C111 (UniProt Q96IW7) 0.105
SH3GL1 C147 (UniProt Q99961) 0.168
IFT140 C1360 (UniProt Q96RY7) 0.195
PUS7 C38 (UniProt Q96PZ0) 0.599
CCT7 C326 (UniProt Q99832) 0.059
WDFY2 C290 (UniProt Q96P53) -0.231
INTS4 C109 (UniProt Q96HW7) -0.26
AGAP3 C356 (UniProt Q96P47) 0.61
UniProt Q9BPX6_C83 0.582
MIPEP C116 (UniProt Q99797) -0.276
MIPEP C518 (UniProt Q99797) -0.145
ZFR C922 (UniProt Q96KR1) 0.289
RPRD1A C220 (UniProt Q96P16) 0.342
OSBPL9 C720 (UniProt Q96SU4) -0.0484
RUFY1 C351 (UniProt Q96T51) 0.308
LGMN C219 (UniProt Q99538) 0.865
TTC1 C8 (UniProt Q99614) 0.0638
MMS19 C599 (UniProt Q96T76) 0.154
VCPIP1 C160 (UniProt Q96JH7) -0.23
MMS19 C723 (UniProt Q96T76) -0.132
VCPIP1 C1178 (UniProt Q96JH7) 0.129
NSUN5 C308 (UniProt Q96P11) 0.317
FAM110A C114 (UniProt Q9BQ89) 0.175
MED15 C618 (UniProt Q96RN5) 0.323

Retrieved one by one from the list above:
log2 ratio of iodoacetamide-alkyne labeling, inactive:
VCPIP1 C160 (UniProt Q96JH7) -0.23
CCT7 C326 (UniProt Q99832) 0.059
